The list shows a part of the results.
Assays:
Assay in all cases: log2 fold change, soluble protein after heating vs DMSO (PISA); higher = thermal stabilisation; K562 cells, 10 uM, 30 min; active = over 0.2 and 3.5 SD of the protein, either way, in both replicates (recomputed)
[1] = compound: CC[C@@H]1C(=O)N(C)c2cnc(Nc3ccc(C(=O)NC4CCN(C)CC4)cc3OC)nc2N1C1CCCC1
How it was run: (§1)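 Values are thermal stability changes relative to control samples and are taken from duplicates. They are stated as log2 fold changes. Before quantification by TMTpro 16plex LC-MS/MS with equalised channel sums, K562 cells at 2×10^6 cells/mL were treated with 10 μM compound for 30 min, heated in aliquots for 3 min across 48°C-58°C, pooled, extracted in PBS with 0.5% NP-40 at 4°C, and centrifuged at 21,000xg for 90 min to give the soluble supernatant.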

The chains behind the UniProt entries cited, without tags or fusion partners. Where a name states a change or a piece, a line headed by the entry shows the natural chain unless it says otherwise.
UniProt Q3T8J9: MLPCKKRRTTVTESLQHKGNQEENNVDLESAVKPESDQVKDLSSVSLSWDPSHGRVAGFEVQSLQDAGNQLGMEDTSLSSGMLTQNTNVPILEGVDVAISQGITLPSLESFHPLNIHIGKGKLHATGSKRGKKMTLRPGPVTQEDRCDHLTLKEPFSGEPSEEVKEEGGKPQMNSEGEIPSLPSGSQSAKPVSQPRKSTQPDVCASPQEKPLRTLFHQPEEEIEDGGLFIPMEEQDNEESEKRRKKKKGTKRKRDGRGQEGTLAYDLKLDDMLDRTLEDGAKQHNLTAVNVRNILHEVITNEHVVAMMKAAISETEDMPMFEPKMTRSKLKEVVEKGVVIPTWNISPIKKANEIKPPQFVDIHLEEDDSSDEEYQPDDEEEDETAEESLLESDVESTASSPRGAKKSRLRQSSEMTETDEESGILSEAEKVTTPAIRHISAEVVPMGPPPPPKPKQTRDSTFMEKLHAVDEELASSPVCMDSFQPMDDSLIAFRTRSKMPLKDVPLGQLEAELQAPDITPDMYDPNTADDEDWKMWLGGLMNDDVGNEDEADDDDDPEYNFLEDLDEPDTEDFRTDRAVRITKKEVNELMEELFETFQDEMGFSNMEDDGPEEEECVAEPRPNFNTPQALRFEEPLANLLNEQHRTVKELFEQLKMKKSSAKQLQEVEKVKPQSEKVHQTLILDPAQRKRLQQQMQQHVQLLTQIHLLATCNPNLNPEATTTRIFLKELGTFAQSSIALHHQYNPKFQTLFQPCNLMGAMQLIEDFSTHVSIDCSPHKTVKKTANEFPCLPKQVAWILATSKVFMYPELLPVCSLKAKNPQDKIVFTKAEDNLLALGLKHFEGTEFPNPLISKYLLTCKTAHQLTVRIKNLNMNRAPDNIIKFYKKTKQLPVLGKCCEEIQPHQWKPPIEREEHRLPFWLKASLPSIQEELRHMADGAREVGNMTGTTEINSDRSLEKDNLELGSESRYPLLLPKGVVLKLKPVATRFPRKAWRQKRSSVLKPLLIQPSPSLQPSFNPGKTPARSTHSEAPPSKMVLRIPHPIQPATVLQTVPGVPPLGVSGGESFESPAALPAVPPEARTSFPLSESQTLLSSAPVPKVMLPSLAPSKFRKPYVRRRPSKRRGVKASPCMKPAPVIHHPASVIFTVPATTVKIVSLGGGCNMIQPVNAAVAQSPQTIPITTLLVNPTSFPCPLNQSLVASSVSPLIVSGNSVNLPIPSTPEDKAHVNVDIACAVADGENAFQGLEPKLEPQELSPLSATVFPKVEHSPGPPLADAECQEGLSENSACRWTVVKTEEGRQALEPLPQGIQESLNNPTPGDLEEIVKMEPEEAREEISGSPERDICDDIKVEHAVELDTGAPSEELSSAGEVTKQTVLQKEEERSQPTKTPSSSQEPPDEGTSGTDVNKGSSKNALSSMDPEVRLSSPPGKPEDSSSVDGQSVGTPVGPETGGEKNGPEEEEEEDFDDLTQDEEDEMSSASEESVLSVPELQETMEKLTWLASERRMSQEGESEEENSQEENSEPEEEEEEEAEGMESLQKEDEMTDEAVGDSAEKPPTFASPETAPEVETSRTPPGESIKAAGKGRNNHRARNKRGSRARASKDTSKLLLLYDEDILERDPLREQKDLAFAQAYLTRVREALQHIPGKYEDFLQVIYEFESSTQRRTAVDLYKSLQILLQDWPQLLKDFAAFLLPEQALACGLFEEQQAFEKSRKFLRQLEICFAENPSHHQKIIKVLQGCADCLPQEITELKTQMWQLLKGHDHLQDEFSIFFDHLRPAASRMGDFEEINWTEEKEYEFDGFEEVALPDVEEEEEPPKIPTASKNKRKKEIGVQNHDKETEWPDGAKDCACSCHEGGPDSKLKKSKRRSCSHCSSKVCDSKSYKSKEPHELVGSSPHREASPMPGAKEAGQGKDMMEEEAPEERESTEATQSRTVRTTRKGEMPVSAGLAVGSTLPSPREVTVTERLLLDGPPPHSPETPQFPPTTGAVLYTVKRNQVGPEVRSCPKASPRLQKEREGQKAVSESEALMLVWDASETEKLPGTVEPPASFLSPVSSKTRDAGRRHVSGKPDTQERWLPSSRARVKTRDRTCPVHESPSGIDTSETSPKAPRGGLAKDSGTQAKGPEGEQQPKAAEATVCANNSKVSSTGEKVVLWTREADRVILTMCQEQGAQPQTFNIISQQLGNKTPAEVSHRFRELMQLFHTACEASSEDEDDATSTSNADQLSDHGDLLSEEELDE
UniProt Q8NBJ4: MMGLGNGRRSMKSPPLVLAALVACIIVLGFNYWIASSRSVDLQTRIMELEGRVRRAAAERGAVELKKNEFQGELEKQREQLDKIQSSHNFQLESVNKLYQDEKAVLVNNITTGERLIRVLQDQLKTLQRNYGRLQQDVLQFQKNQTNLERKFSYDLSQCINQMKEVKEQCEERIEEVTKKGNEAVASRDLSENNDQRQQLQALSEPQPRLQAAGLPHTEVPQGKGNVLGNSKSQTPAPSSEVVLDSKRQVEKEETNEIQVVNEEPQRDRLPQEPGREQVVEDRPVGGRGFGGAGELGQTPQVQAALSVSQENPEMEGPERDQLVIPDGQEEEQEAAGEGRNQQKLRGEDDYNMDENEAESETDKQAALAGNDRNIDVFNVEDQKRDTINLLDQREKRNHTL
UniProt P36915, whole entry, looked up: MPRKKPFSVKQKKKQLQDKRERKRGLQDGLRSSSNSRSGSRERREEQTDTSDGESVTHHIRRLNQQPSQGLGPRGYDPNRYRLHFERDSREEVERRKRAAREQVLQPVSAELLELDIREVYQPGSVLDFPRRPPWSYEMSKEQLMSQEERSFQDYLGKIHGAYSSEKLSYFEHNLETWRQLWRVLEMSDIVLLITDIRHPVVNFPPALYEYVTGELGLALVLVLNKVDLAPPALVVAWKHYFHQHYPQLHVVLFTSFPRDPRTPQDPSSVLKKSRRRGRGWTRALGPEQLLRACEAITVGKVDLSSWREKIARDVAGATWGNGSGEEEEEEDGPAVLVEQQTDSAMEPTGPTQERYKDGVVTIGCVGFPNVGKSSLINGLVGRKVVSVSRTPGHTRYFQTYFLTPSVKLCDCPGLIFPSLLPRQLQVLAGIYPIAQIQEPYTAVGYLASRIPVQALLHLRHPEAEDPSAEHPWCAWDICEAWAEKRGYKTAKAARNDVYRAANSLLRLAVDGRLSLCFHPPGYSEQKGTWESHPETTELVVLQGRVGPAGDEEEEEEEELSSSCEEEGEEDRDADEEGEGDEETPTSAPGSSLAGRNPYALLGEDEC
UniProt P00367: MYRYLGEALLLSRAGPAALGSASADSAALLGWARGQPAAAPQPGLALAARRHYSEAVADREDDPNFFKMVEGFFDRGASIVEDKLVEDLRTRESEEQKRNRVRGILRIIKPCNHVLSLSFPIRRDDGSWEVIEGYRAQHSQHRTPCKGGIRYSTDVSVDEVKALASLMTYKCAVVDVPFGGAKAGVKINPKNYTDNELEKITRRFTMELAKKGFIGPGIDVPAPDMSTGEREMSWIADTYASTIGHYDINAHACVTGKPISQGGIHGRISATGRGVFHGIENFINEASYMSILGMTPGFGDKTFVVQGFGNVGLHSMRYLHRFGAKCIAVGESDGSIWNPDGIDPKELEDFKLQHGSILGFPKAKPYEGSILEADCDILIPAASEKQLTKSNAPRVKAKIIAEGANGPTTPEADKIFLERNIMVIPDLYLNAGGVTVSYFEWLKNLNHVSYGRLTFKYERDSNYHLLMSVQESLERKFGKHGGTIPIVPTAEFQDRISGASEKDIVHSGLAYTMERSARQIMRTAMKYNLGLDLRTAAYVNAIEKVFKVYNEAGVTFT
UniProt Q9UKD1: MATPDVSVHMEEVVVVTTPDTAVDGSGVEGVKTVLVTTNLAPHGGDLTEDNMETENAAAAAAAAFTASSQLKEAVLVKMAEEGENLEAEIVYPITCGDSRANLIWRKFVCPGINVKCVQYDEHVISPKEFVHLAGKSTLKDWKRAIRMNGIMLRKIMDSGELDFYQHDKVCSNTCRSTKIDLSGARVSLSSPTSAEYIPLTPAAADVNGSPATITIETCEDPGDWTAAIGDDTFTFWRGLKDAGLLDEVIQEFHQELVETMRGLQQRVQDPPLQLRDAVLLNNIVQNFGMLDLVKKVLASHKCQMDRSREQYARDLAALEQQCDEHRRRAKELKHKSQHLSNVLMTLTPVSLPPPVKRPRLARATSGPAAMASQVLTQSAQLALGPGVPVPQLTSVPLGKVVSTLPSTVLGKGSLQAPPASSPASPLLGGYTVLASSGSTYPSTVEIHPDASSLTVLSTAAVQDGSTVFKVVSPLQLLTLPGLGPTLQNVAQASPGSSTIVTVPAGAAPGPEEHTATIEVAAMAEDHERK
UniProt Q8WWB7: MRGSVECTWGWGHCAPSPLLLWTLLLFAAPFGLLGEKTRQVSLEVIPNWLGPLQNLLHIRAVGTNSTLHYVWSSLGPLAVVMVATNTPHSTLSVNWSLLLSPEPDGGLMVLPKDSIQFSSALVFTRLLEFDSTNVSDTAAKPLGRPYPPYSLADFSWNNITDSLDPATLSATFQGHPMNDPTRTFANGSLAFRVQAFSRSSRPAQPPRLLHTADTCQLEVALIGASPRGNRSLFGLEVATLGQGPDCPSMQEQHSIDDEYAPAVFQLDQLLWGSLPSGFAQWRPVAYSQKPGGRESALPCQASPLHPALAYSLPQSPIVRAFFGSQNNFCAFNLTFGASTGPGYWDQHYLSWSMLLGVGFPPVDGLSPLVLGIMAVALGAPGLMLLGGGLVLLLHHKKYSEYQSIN
UniProt Q9BRR8: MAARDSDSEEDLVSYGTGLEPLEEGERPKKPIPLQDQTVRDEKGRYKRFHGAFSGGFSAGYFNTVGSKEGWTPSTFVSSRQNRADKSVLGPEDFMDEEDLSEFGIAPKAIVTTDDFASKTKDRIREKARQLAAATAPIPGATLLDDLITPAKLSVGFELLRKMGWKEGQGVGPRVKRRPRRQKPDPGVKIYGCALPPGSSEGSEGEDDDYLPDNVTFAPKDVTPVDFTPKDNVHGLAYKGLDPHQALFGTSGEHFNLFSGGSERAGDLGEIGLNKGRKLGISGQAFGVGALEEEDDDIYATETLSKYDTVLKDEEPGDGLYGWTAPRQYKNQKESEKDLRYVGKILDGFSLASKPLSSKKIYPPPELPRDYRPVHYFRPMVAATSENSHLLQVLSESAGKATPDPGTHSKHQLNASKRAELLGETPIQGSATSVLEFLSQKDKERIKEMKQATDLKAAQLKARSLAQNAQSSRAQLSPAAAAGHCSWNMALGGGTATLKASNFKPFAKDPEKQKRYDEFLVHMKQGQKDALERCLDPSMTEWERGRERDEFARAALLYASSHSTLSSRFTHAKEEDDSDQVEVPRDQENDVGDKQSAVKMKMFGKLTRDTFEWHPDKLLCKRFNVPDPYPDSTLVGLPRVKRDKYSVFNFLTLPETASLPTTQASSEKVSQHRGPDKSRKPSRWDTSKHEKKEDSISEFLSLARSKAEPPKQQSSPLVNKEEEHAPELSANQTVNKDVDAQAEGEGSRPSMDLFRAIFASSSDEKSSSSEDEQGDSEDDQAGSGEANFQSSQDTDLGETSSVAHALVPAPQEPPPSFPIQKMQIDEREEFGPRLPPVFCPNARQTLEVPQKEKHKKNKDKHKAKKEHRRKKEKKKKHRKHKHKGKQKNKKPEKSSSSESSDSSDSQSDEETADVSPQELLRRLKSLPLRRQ
UniProt P49448: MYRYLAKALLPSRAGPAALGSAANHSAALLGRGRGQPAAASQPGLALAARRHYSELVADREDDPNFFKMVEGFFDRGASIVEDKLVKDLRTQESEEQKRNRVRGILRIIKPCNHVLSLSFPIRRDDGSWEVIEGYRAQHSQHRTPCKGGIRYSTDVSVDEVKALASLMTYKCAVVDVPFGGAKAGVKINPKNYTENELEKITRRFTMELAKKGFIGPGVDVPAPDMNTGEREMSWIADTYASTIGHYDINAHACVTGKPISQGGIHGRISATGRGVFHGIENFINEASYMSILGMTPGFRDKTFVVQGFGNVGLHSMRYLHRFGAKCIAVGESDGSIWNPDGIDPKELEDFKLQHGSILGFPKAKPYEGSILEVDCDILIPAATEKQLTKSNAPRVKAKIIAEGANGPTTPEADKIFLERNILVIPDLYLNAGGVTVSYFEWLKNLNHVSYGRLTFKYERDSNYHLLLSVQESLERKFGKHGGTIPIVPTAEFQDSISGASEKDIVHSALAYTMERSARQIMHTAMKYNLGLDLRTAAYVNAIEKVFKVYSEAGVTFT
UniProt Q9H9Y4: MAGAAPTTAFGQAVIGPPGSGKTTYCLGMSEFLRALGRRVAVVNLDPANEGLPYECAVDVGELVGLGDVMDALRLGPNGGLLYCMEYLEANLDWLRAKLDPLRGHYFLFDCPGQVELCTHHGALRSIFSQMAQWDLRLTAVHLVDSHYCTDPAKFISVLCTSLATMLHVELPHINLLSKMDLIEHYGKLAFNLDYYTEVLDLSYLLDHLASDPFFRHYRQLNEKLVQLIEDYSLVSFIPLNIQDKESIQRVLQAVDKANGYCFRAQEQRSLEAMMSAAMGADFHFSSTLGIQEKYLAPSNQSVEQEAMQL

volasertib = compound: CC[C@@H]1C(=O)N(C)c2cnc(Nc3ccc(C(=O)N[C@H]4CC[C@H](N5CCN(CC6CC6)CC5)CC4)cc3OC)nc2N1C(C)C [volasertib]
How it was run: as §1

[2] = compound: CC[C@H](C)N1C=C(C2=C(C=C(C=C21)C3=CN=C(C=C3)N4CCNCC4)C(=O)NCC5=C(C=C(NC5=O)C)C)C
How it was run: as §1

[3] = compound: CCn1c(C(=O)N(C2CC2)C2CC2)cc2c3c(ncn3C)c(Nc3cc(C)n(C)n3)nc21
How it was run: as §1

[4] = compound: CCn1cc(-c2ccnc3[nH]c(-c4cccc(CN(C)C)c4)cc23)c(-c2ccc(NC(=O)N(C)C)cc2)n1
How it was run: as §1

[5] = compound: CN(C)CC(=O)Nc1ccc2[nH]c(=O)c3ccccc3c2c1
How it was run: as §1

rosiglitazone = compound: CN(CCOC1=CC=C(C=C1)C[C@H]2C(=O)NC(=O)S2)C3=CC=CC=N3 (racemic) [rosiglitazone]
How it was run: as §1

[6] = compound: CN1C2=C(C3=C1C(=O)N(N=C3)CC4=CC(=CC=C4)N)SC(=C2)S(=O)C
How it was run: as §1

[7] = compound: CN1CCC(CNc2ccc3ncc(-c4cccc(OC(F)(F)F)c4)n3n2)CC1
How it was run: as §1

epoxomicin = compound: CC[C@H](C)[C@@H](C(=O)N[C@@H]([C@@H](C)O)C(=O)N[C@@H](CC(C)C)C(=O)[C@]1(CO1)C)NC(=O)[C@H]([C@@H](C)CC)N(C)C(=O)C [epoxomicin]
How it was run: as §1

Target | log2 fold change [1] | log2 fold change (volasertib) | log2 fold change [2] | log2 fold change [3] | log2 fold change [4] | log2 fold change [5] | log2 fold change (rosiglitazone) | log2 fold change [6] | log2 fold change [7] | log2 fold change (epoxomicin)
GOSR2 isoform 2 (UniProt O14653) | inactive: -0.065 | inactive: -0.144 | inactive: 0.034 | inactive: -0.043 | inactive: -0.075 | inactive: -0.006 | inactive: 0.003 | inactive: -0.183 | inactive: -0.038 | –
GNPAT (UniProt O15228) | inactive: -0.065 | inactive: -0.149 | inactive: -0.02 | – | inactive: -0.066 | inactive: -0.027 | – | inactive: -0.084 | active: -0.354 | inactive: 0.04
GSK3A (UniProt P49840) | inactive: -0.067 | inactive: 0.002 | inactive: 0.002 | – | inactive: -0.101 | inactive: -0.008 | – | inactive: -0.066 | inactive: 0.033 | inactive: 0
GON4L (UniProt Q3T8J9) | inactive: -0.134 | inactive: 0.002 | inactive: 0.029 | – | – | – | inactive: -0.018 | inactive: 0.05 | – | inactive: 0.091
GLA (UniProt P06280) | active: -0.449 | active: -0.911 | inactive: 0.002 | – | inactive: 0.03 | inactive: -0.001 | – | inactive: 0.005 | active: -0.535 | inactive: 0.026
GOLM1 (UniProt Q8NBJ4) | inactive: -0.04 | inactive: 0.032 | inactive: -0.175 | inactive: 0.062 | – | inactive: -0.072 | inactive: 0.036 | – | – | –
GNL1 (UniProt P36915) | inactive: -0.095 | active: -0.229 | inactive: 0.027 | – | inactive: -0.1 | inactive: 0.024 | – | inactive: -0.083 | inactive: -0.053 | inactive: 0.008
GLUD1 (UniProt P00367) | inactive: 0.146 | inactive: 0.25 | inactive: 0.034 | – | inactive: -0.054 | inactive: 0 | – | inactive: -0.128 | inactive: 0.102 | inactive: 0.024
GLCCI1 (UniProt Q86VQ1) | inactive: -0.048 | inactive: 0.108 | inactive: 0.15 | – | inactive: 0.088 | inactive: -0.035 | – | inactive: -0.023 | active: -0.328 | inactive: -0.022
GMEB2 (UniProt Q9UKD1) | inactive: 0.05 | active: -0.282 | inactive: 0.062 | – | inactive: -0.048 | inactive: 0.018 | – | inactive: -0.03 | inactive: -0.075 | inactive: 0.156
GOLPH3 (UniProt Q9H4A6) | inactive: 0.029 | inactive: 0.008 | inactive: 0.086 | – | inactive: -0.059 | inactive: -0.001 | – | inactive: -0.075 | active: 0.236 | inactive: 0.084
GLMP (UniProt Q8WWB7) | inactive: 0.116 | inactive: -0.083 | inactive: -0.061 | – | – | inactive: 0.017 | – | inactive: -0.116 | – | inactive: -0.067
GPKOW (UniProt Q92917) | inactive: -0.056 | inactive: -0.217 | inactive: 0.101 | – | inactive: -0.049 | inactive: 0.039 | – | inactive: 0.022 | inactive: -0.248 | inactive: -0.021
GIGYF2 (UniProt Q6Y7W6) | inactive: -0.093 | active: -0.52 | inactive: 0.02 | – | inactive: -0.039 | inactive: 0.032 | – | inactive: 0.021 | active: -0.221 | inactive: 0
GPATCH1 (UniProt Q9BRR8) | inactive: -0.003 | inactive: -0.043 | – | inactive: -0.461 | – | inactive: 0.02 | – | inactive: -0.055 | – | inactive: 0.067
GLB1 (UniProt P16278) | active: -0.707 | active: -1.11 | inactive: 0.007 | – | inactive: 0.057 | inactive: 0.002 | – | inactive: 0.037 | active: -0.751 | inactive: -0.01
GLUD2 (UniProt P49448) | inactive: 0.13 | inactive: 0.252 | inactive: 0.068 | – | inactive: -0.219 | inactive: 0.021 | – | inactive: -0.022 | inactive: 0.071 | inactive: -0.07
GPATCH4 isoform 3 (UniProt Q5T3I0) | inactive: 0.297 | inactive: 0.226 | – | – | inactive: 0.259 | inactive: 0.358 | inactive: -0.166 | inactive: 0.183 | inactive: 0.298 | inactive: -0.02
GPX3 (UniProt P22352) | inactive: 0.058 | inactive: -0.228 | – | inactive: -0.115 | – | inactive: -0.097 | inactive: 0.057 | inactive: -0.001 | – | inactive: -0.194
GLTP (UniProt Q9NZD2) | inactive: 0.064 | inactive: -0.021 | inactive: 0.012 | inactive: -0.019 | inactive: 0.023 | inactive: 0.006 | inactive: -0.125 | – | inactive: 0.203 | –
GOLGB1 isoform 2 (UniProt Q14789) | inactive: 0.009 | inactive: -0.17 | inactive: -0.052 | – | inactive: 0.05 | inactive: -0.061 | – | inactive: 0.148 | inactive: -0.009 | inactive: -0.185
GORAB (UniProt Q5T7V8) | inactive: -0.12 | inactive: -0.178 | inactive: 0.069 | inactive: 0.022 | – | inactive: 0.157 | inactive: 0.125 | inactive: -0.384 | – | –
GINS2 (UniProt Q9Y248) | inactive: -0.011 | inactive: -0.07 | inactive: 0.171 | – | inactive: -0.135 | inactive: 0.06 | – | inactive: 0.064 | inactive: 0.062 | inactive: 0.014
GLS (UniProt O94925) | inactive: -0.271 | active: -0.366 | inactive: 0.142 | – | inactive: -0.051 | inactive: 0.103 | – | inactive: -0.085 | inactive: -0.241 | inactive: 0.151
GPX4 (UniProt P36969) | inactive: 0.019 | inactive: 0.016 | inactive: 0.012 | – | inactive: -0.025 | inactive: 0.009 | – | inactive: -0.061 | inactive: 0.067 | inactive: 0.021
GPN2 (UniProt Q9H9Y4) | inactive: 0.055 | inactive: 0.093 | inactive: -0.057 | inactive: -0.041 | inactive: -0.078 | inactive: 0.044 | inactive: -0.016 | inactive: -0.047 | inactive: -0.025 | –
GLUL (UniProt P15104) | inactive: 0.049 | inactive: 0.113 | inactive: -0.041 | – | inactive: 0.014 | inactive: -0.032 | – | inactive: -0.032 | inactive: 0.017 | inactive: 0.081

In another format: results already given.
Target	log2 fold change [1]	log2 fold change (volasertib)	log2 fold change [2]	log2 fold change [3]	log2 fold change [4]	log2 fold change [5]	log2 fold change (rosiglitazone)	log2 fold change [6]	log2 fold change [7]	log2 fold change (epoxomicin)
GMEB2 (UniProt Q9UKD1)	inactive: 0.05	active: -0.282	inactive: 0.062	–	inactive: -0.048	inactive: 0.018	–	inactive: -0.03	inactive: -0.075	inactive: 0.156
GOLPH3 (UniProt Q9H4A6)	inactive: 0.029	inactive: 0.008	inactive: 0.086	–	inactive: -0.059	inactive: -0.001	–	inactive: -0.075	active: 0.236	inactive: 0.084
GLMP (UniProt Q8WWB7)	inactive: 0.116	inactive: -0.083	inactive: -0.061	–	–	inactive: 0.017	–	inactive: -0.116	–	inactive: -0.067
GPKOW (UniProt Q92917)	inactive: -0.056	inactive: -0.217	inactive: 0.101	–	inactive: -0.049	inactive: 0.039	–	inactive: 0.022	inactive: -0.248	inactive: -0.021
GIGYF2 (UniProt Q6Y7W6)	inactive: -0.093	active: -0.52	inactive: 0.02	–	inactive: -0.039	inactive: 0.032	–	inactive: 0.021	active: -0.221	inactive: 0

— the supplement of paper PMC10849652
